Record: PubChem BioAssay AID1224828 (NIAID, 2016)

Assay: 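Knock-downs that increase or decrease LPS-induced p65 nuclear translocation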 (primary screen)
System: mouse RAW264.7 G9 macrophage reporter cells (GFP-p65, Tnf promoter-mCherry)
Reagents: siRNA pool against mouse genes, 100 nM
Timing: 2 days siRNA transfection, then 40 min LPS before fixation
Treatment: LPS (Salmonella minnesota R595) at 10 ng/ml
Measured: 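Imaged p65 nuclear translocation ratio, normalised to the plate median, converted to robust z-scores and averaged across two replicates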
Reading the numbers: p65 translocation robust z-score: higher = more nuclear NF-kappaB p65 after LPS than the plate median; nuclear/cytoplasmic p65 ratio: higher = more nuclear NF-kappaB p65
Active means: 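Active if robust z is above 3.3 (negative regulators) or below -1.56, the Tlr4 control median (positive regulators); activity score 50 or more; control wells not called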
Meaning of the calls: active = hit (p65 shift raised or lowered); inactive = no clear change
The deposit covers about 17,000 reagents; this is a random part of them. 762 of all reagents (4.5%) count as active. 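Active calls include both raised and lowered p65 entry, mostly lowered; wells with fewer than 50 cells lack a z-score.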 The raw values are shown without normalisation. A reagent listed more than once was tested more than once; the source does not tell the runs apart. No sequences are given here.

| gene | PubChem SID | p65 translocation robust z-score | nuclear/cytoplasmic p65 ratio, rep 1 | nuclear/cytoplasmic p65 ratio, rep 2 | low cell count flag | Outcome |
| --- | --- | --- | --- | --- | --- | --- |
| Casq2 (GeneID 12373) | SID315465777 | -0.23 | 1.54 | 1.62 | enough cells to score | inactive |
| Plau (GeneID 18792) | SID315468571 | 1.1 | 1.58 | 1.61 | enough cells to score | inactive |
| Wnk2 (GeneID 75607) | SID315475159 | -0.34 | 1.57 | 1.39 | enough cells to score | inactive |
| Adra1b (GeneID 11548) | SID315465324 | -0.72 | 1.57 | 1.32 | enough cells to score | inactive |
| Adra1b (GeneID 11548) | SID315465324 | -1.06 | 1.39 | 1.4 | enough cells to score | inactive |
| Fam204a (GeneID 76539) | SID315475337 | -0.13 | 1.57 | 1.55 | enough cells to score | inactive |
| Stk32b (GeneID 64293) | SID315472083 | – | 1.73 | 1.4 | fewer than 50 cells per well; well left out of scoring | inactive |
| Eln (GeneID 13717) | SID315466488 | 0 | 1.46 | 1.37 | enough cells to score | inactive |
| Adar (GeneID 56417) | SID315471518 | -0.2 | 1.58 | 1.65 | enough cells to score | inactive |
| Syp (GeneID 20977) | SID315469557 | 0.73 | 1.46 | 1.33 | enough cells to score | inactive |
| Sorbs2 (GeneID 234214) | SID315479145 | 0.93 | 1.53 | 1.7 | enough cells to score | inactive |
| Nme1 (GeneID 18102) | SID315468190 | – | 1.64 | 1.23 | fewer than 50 cells per well; well left out of scoring | inactive |
| Nme8 (GeneID 73412) | SID315474723 | -0.17 | 1.72 | 1.36 | enough cells to score | inactive |
| Trim23 (GeneID 81003) | SID315475771 | 0.85 | 1.61 | 1.64 | enough cells to score | inactive |
| Crybb1 (GeneID 12960) | SID315466143 | -0.42 | 1.51 | 1.31 | enough cells to score | inactive |
| Klf9 (GeneID 16601) | SID315467646 | -0.21 | 1.62 | 1.55 | enough cells to score | inactive |
| Atp6ap2 (GeneID 70495) | SID315474068 | -0.59 | 1.45 | 1.64 | enough cells to score | inactive |
| Kctd15 (GeneID 233107) | SID315479060 | -0.11 | 1.55 | 1.4 | enough cells to score | inactive |
| Cd226 (GeneID 225825) | SID315478437 | – | 1.49 | 1.45 | fewer than 50 cells per well; well left out of scoring | inactive |
| Galnt6 (GeneID 207839) | SID315477502 | -1.19 | 1.4 | 1.34 | enough cells to score | inactive |
| Ak4 (GeneID 11639) | SID315465368 | -0.46 | 1.58 | 1.33 | enough cells to score | inactive |
| Chst12 (GeneID 59031) | SID315471965 | 0.03 | 1.6 | 1.79 | enough cells to score | inactive |
| Spag17os (GeneID 320613) | SID315481352 | 1.37 | 1.82 | 2.02 | enough cells to score | inactive |
| Aipl1 (GeneID 114230) | SID315477002 | 1.1 | 1.79 | 1.78 | enough cells to score | inactive |
| Pum1 (GeneID 80912) | SID315475758 | -0.69 | 1.28 | 1.15 | enough cells to score | inactive |
| Il21 (GeneID 60505) | SID315472021 | – | 1.16 | 1.52 | fewer than 50 cells per well; well left out of scoring | inactive |
| Ggct (GeneID 110175) | SID315476882 | 0.85 | 1.53 | 1.6 | enough cells to score | inactive |
| Actr3b (GeneID 242894) | SID315479657 | -0.03 | 1.59 | 1.63 | enough cells to score | inactive |
| Zfp39 (GeneID 22698) | SID315470116 | 1.29 | 1.61 | 1.38 | enough cells to score | inactive |
| Zxdc (GeneID 80292) | SID315475696 | -0.74 | 1.47 | 1.72 | enough cells to score | inactive |
| Aurkb (GeneID 20877) | SID315469505 | – | 1.76 | 1.68 | fewer than 50 cells per well; well left out of scoring | inactive |
| Ano5 (GeneID 233246) | SID315479072 | 1.3 | 1.83 | 1.6 | enough cells to score | inactive |
| Nudt13 (GeneID 67725) | SID315473192 | -0.57 | 1.62 | 1.45 | enough cells to score | inactive |
| Efnb2 (GeneID 13642) | SID315466453 | -0.99 | 1.43 | 1.23 | enough cells to score | inactive |
| Or4c116 (GeneID 258904) | SID315480530 | 2.15 | 2.08 | 1.81 | enough cells to score | inactive |
| Tubb6 (GeneID 67951) | SID315473331 | -0.16 | 1.57 | 1.61 | enough cells to score | inactive |
| D3Ertd751e (GeneID 73852) | SID315474795 | 1.31 | 1.44 | 1.44 | enough cells to score | inactive |
| Gtf2h1 (GeneID 14884) | SID315467070 | 1.49 | 2.09 | 1.44 | enough cells to score | inactive |
| Rmp64 (GeneID 212547) | SID315477749 | 0.22 | 1.7 | 1.78 | enough cells to score | inactive |
| Or1o11 (GeneID 258457) | SID315480138 | -0.53 | 1.67 | 1.42 | enough cells to score | inactive |
| Plagl2 (GeneID 54711) | SID315471295 | 0.05 | 1.46 | 1.46 | enough cells to score | inactive |
| Csf1 (GeneID 12977) | SID315466156 | -2.27 | 1.16 | 1.09 | enough cells to score | active |
| Rae1 (GeneID 66679) | SID315472579 | -1.06 | 1.22 | 1.11 | enough cells to score | inactive |
| Dpysl3 (GeneID 22240) | SID315469931 | – | 1.59 | 1.13 | fewer than 50 cells per well; well left out of scoring | inactive |
| Or13e8 (GeneID 56014) | SID315471340 | – | 1.45 | 1.36 | fewer than 50 cells per well; well left out of scoring | inactive |
| Cby2 (GeneID 67926) | SID315473314 | 0.82 | 1.87 | 1.62 | enough cells to score | inactive |
| Gimap6 (GeneID 231931) | SID315478947 | – | 1.44 | 1.48 | fewer than 50 cells per well; well left out of scoring | inactive |
| Syngr4 (GeneID 58867) | SID315471926 | 1.84 | 1.6 | 1.39 | enough cells to score | inactive |
| Mlst8 (GeneID 56716) | SID315471651 | -0.65 | 1.37 | 1.49 | enough cells to score | inactive |
| Sgsh (GeneID 27029) | SID315470516 | -1.34 | 1.37 | 1.35 | enough cells to score | inactive |
| Jrk (GeneID 16469) | SID315467550 | – | 1.67 | 1.51 | fewer than 50 cells per well; well left out of scoring | inactive |
| Or5au1 (GeneID 258420) | SID315481955 | 0.52 | 1.76 | 1.43 | enough cells to score | inactive |
| Txnrd3 (GeneID 232223) | SID315478969 | -0.9 | 1.41 | 1.36 | enough cells to score | inactive |
| Spem2 (GeneID 108803) | SID315476740 | – | 1.24 | 1.18 | fewer than 50 cells per well; well left out of scoring | inactive |
| Hsdl2 (GeneID 72479) | SID315474559 | – | 1.46 | 1.43 | fewer than 50 cells per well; well left out of scoring | inactive |
| Timm29 (GeneID 69773) | SID315473895 | – | 1.58 | 1.32 | fewer than 50 cells per well; well left out of scoring | inactive |
| G3bp2 (GeneID 23881) | SID315470214 | 1.43 | 1.68 | 1.52 | enough cells to score | inactive |
| Cyp7a1 (GeneID 13122) | SID315466251 | -0.78 | 1.49 | 1.62 | enough cells to score | inactive |
| Slc26a11 (GeneID 268512) | SID315480778 | – | 1.34 | 1.9 | fewer than 50 cells per well; well left out of scoring | inactive |
| Tmem132c (GeneID 208213) | SID315477526 | – | 1.01 | 0.724 | fewer than 50 cells per well; well left out of scoring | inactive |
| Vmn1r71 (GeneID 252910) | SID315479917 | 0.15 | 1.41 | 1.18 | enough cells to score | inactive |
| Gpatch2l (GeneID 70373) | SID315474030 | – | 1.6 | 1.23 | fewer than 50 cells per well; well left out of scoring | inactive |
| Dut (GeneID 110074) | SID315476867 | -0.21 | 1.5 | 1.33 | enough cells to score | inactive |
| Arrdc4 (GeneID 66412) | SID315472429 | -1.39 | 1.32 | 1.39 | enough cells to score | inactive |
| Ccr5 (GeneID 12774) | SID315466018 | -0.16 | 1.5 | 1.54 | enough cells to score | inactive |
| Bpifb3 (GeneID 378700) | SID315481743 | -0.15 | 1.48 | 1.14 | enough cells to score | inactive |
| Prkd3 (GeneID 75292) | SID315475097 | -0.08 | 1.68 | 1.36 | enough cells to score | inactive |
| Nap1l4 (GeneID 17955) | SID315468099 | 1.29 | 1.94 | 1.83 | enough cells to score | inactive |
| Armc1 (GeneID 74252) | SID315474921 | 0.17 | 1.69 | 1.6 | enough cells to score | inactive |
| Kcnj2 (GeneID 16518) | SID315467582 | -0.52 | 1.35 | 1.36 | enough cells to score | inactive |
| Or8k17 (GeneID 259016) | SID315480624 | -0.15 | 1.54 | 1.64 | enough cells to score | inactive |
| Gpaa1 (GeneID 14731) | SID315466980 | 1.48 | 1.34 | 1.58 | enough cells to score | inactive |
| Tmem45a (GeneID 56277) | SID315471427 | -0.49 | 1.51 | 1.57 | enough cells to score | inactive |
| Igf2r (GeneID 16004) | SID315467406 | 0.71 | 1.49 | 1.5 | enough cells to score | inactive |
| Ahsg (GeneID 11625) | SID315465360 | -0.99 | 1.37 | 1.55 | enough cells to score | inactive |
